{"source": "PubChem BioAssay AID1259279 (Sanger Institute, 2017)", "purpose": "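Kinase-wide knock-down seeking synergy with BYL719, cetuximab or trametinib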 (primary screen)", "cells": "LS180 human colorectal cancer cells", "reagents": "siRNA pool against human genes", "challenge": "anchor drug BYL719 at 1 µM, cetuximab at 5 µg/ml or trametinib at 10 nM, or DMSO vehicle only", "measured": "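Viability as a fraction of non-targeting control and as a replicate-averaged robust z-score, with separate synergy scores for BYL719, cetuximab and trametinib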", "reading the numbers": "viability z-score, no drug: higher = more viable cells after knock-down", "call rule": "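Essential (active) calls need a no-drug viability z-score lower than -3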", "calls": "active = essential (knock-down alone cuts viability); inactive = no change without drug", "note": "This is an unselected part of 794 reagents tested. 11 of them (1.4%) were called active. 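Calls reflect knock-down alone in the vehicle arm, not drug synergy.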 Not all columns of the deposit are shown. Not given: the amount of reagent, the time to read-out."}
{"gene knocked down": "CDC42BPA (CDC42 binding protein kinase alpha)", "viability z-score, no drug": -1.1, "Call": "inactive"}
{"gene knocked down": "OBSCN", "viability z-score, no drug": 0.557, "Call": "inactive"}
{"gene knocked down": "TBK1 (TANK binding kinase 1)", "viability z-score, no drug": 0.86, "Call": "inactive"}
{"gene knocked down": "SMC1A (structural maintenance of chromosomes 1A)", "viability z-score, no drug": -0.706, "Call": "inactive"}
{"gene knocked down": "PFKFB3 (6-phosphofructo-2-kinase/fructose-2,6-biphosphatase 3)", "viability z-score, no drug": 0.111, "Call": "inactive"}
{"gene knocked down": "SYNCRIP (synaptotagmin binding cytoplasmic RNA interacting protein)", "viability z-score, no drug": -0.00187, "Call": "inactive"}
{"gene knocked down": "PRKCSH (PRKCSH beta subunit of glucosidase II)", "viability z-score, no drug": 0.215, "Call": "inactive"}
{"gene knocked down": "ITPK1 (inositol-tetrakisphosphate 1-kinase)", "viability z-score, no drug": 0.86, "Call": "inactive"}
{"gene knocked down": "DCLK2 (doublecortin like kinase 2)", "viability z-score, no drug": -3, "Call": "active"}
{"gene knocked down": "HIPK1 (homeodomain interacting protein kinase 1)", "viability z-score, no drug": 0.818, "Call": "inactive"}
{"gene knocked down": "IRAK1 (interleukin 1 receptor associated kinase 1)", "viability z-score, no drug": -1.23, "Call": "inactive"}
{"gene knocked down": "PRKAB2 (protein kinase AMP-activated non-catalytic subunit beta 2)", "viability z-score, no drug": -1.53, "Call": "inactive"}
{"gene knocked down": "CDK9 (cyclin dependent kinase 9)", "viability z-score, no drug": 0.86, "Call": "inactive"}
{"gene knocked down": "MARK4 (microtubule affinity regulating kinase 4)", "viability z-score, no drug": 0.86, "Call": "inactive"}
{"gene knocked down": "STK31 (serine/threonine kinase 31)", "viability z-score, no drug": -0.353, "Call": "inactive"}
{"gene knocked down": "CDC73 (cell division cycle 73)", "viability z-score, no drug": -0.903, "Call": "inactive"}
{"gene knocked down": "GAK (cyclin G associated kinase)", "viability z-score, no drug": 0.86, "Call": "inactive"}
{"gene knocked down": "CAMK1G (calcium/calmodulin dependent protein kinase IG)", "viability z-score, no drug": 0.86, "Call": "inactive"}
{"gene knocked down": "PEAK1 (pseudopodium enriched atypical kinase 1)", "viability z-score, no drug": -0.416, "Call": "inactive"}
{"gene knocked down": "EPHA6 (EPH receptor A6)", "viability z-score, no drug": -1.09, "Call": "inactive"}
{"gene knocked down": "NRK (Nik related kinase)", "viability z-score, no drug": 0.86, "Call": "inactive"}
{"gene knocked down": "SOX9 (SRY-box transcription factor 9)", "viability z-score, no drug": 0.83, "Call": "inactive"}
{"gene knocked down": "DAPK2 (death associated protein kinase 2)", "viability z-score, no drug": 0.14, "Call": "inactive"}
{"gene knocked down": "MAPK3 (mitogen-activated protein kinase 3)", "viability z-score, no drug": 0.308, "Call": "inactive"}
{"gene knocked down": "HIPK3 (homeodomain interacting protein kinase 3)", "viability z-score, no drug": 0.86, "Call": "inactive"}
{"gene knocked down": "ROCK2 (Rho associated coiled-coil containing protein kinase 2)", "viability z-score, no drug": 0.86, "Call": "inactive"}
{"gene knocked down": "NME5 (NME/NM23 family member 5)", "viability z-score, no drug": 0.86, "Call": "inactive"}
{"gene knocked down": "DLG2 (discs large MAGUK scaffold protein 2)", "viability z-score, no drug": 0.86, "Call": "inactive"}

Hits, among the entries above:
{"gene knocked down": "DCLK2 (doublecortin like kinase 2)", "viability z-score, no drug": -3, "Call": "active"}
